# Laboratory results published in PubChem BioAssay AID1494156 (National Center for Advancing Translational Sciences (NCATS), 2020).
# This list was built around the results that the source calls inconclusive (neither active nor inactive); the mix of calls is not that of the screen. Potencies of inconclusive entries are doubtful fits and often do not repeat. Activity calls are given as the source filed them. Calls come from the whole dose curve.
# Assay: VSV-G qHTS counterscreen for inhibitors of MERS-S pseudo-typed particle cell entry
# Details: VSV-G pseudotyped particle cell entry, luciferase counterscreen; series mostly up to 57.1 µM; activity, negative = inhibition: at the top concentration
Structure (SMILES),Potency,"activity, negative = inhibition"
N/C(=N\N=C\c1ccc(Cl)cc1)N/N=C/c1ccc(Cl)cc1,"inconclusive: 42.9 µM [inhibitor, single point]",–
CCN1CCN(Cc2ccc(Nc3ncc(F)c(-c4cc(F)c5nc(C)n(C(C)C)c5c4)n3)nc2)CC1,"inconclusive: 0.192 µM [inhibitor, full curve]",–
COc1cccc2c1C(=O)c1c(O)c3c(c(O)c1C2=O)C[C@@](O)(C(C)=O)C[C@@H]3O[C@H]1C[C@H](N)[C@H](O)[C@H](C)O1,active: 1.92 µM,–
Cc1cc(-n2c(=O)[nH]c(=O)n(C)c2=O)ccc1Oc1ccc(S(=O)(=O)C(F)(F)F)cc1,active: 9.61 µM,–
CN1CCN(CCC=C2c3ccccc3Sc3ccc(S(=O)(=O)N(C)C)cc32)CC1,"inconclusive: 42.9 µM [inhibitor, single point]",–
OCCN1CCN(CC/C=C2/c3ccccc3Sc3ccc(C(F)(F)F)cc32)CC1,"inconclusive: 30.4 µM [inhibitor, single point]",–
O=c1ccc2ccccc2o1,–,inactive: 0%
CCCCCCCCCCCC[n+]1ccc2ccccc2c1,active: 1.52 µM,–
CN(C)CCOC(c1ccccc1)c1ccc(Br)cc1 (stereo unspecified),"inconclusive: 42.9 µM [inhibitor, partial curve, poor fit]",–
COc1cccc2c1C(=O)c1c(O)c3c(c(O)c1C2=O)C[C@@](O)(C(=O)CO)C[C@@H]3O[C@H]1C[C@H](N)[C@H](OC2CCCCO2)[C@H](C)O1 (stereo partly specified),–,inactive: 0%
COc1c(OCCCN2CCOCC2)ccc2c3n(c(=NC(=O)c4cnc(N)nc4)nc12)CCN3,–,inactive: -8.49% [at 11.2 µM]
